Results on 40 compounds are retold here after PubChem BioAssay AID493014 (National Center for Advancing Translational Sciences (NCATS), 2011).

The list shows a part of the results. These are further read-outs of the screen, such as a control signal, another cell line or another target. No call is given for them. The list favours compounds with an active or inconclusive main result. Potencies come from curve fits of mixed quality, noted in brackets.

A short description of this experiment: qHTS Assay to Find Inhibitors of Chronic Active B-Cell Receptor Signaling. Conditions: ABC-DLBCL IkBa-CBG/CBR reporter, luminescence ratio (green luciferase fused to IkBa over red control in TMD8 lymphoma cells), 4 h. Summed up:
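TMD8 human ABC-DLBCL cells with doxycycline-inducible IκBα–green luciferase fusion and unfused red luciferase, in 0.5% FBS medium; compounds up to 46 uM, 4 h at 37C. Green/red luminescence ratio, filter-overlap corrected, fitted to concentration-response curves.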

The mark [1] stands for this setting: measured here: CBR red luminescence, cell number.
Where [2] appears, read: measured here: IkBa-CBG green luminescence.

What is called AC50 is the concentration at which the activity in the assay is half-maximal. As for `Cn1c(C(=O)N2CCCC(C(=O)NCCN3CCOCC3)C2)cc2sccc21` (configuration not stated), the AC50 under setting [1] was 20.6 µM [rising, single point].

`Cc1cccc(OCC(=O)Nc2ccc3c(c2)nc(CCN2CCC(C)CC2)n3C)c1`: the AC50 under setting [1] was 7.08 µM [falling, full curve].

Take `CNC(=O)N(O)C1N(/N=C/c2ccccc2OC)C(=S)SC1(C)C` (configuration not stated): the AC50 under setting [1] is 35.5 µM [falling, single point].

Take `COc1ccccc1CNC(=O)COc1ccccc1OC`: the AC50 under setting [1] was 29.1 µM [rising, single point].

Turning to `COCC(=O)Nc1nc2ccc(C)cc2s1`, the AC50 under setting [1] was 20.6 µM [falling, partial curve, poor fit].

Regarding `C/C(=N\Nc1ccc(Cl)c(C(=O)O)c1)c1ccc2c(c1)OCO2`, the AC50 under setting [1] is 10 µM [falling, partial curve, poor fit].

Take `CCCCCc1c(C)nc(N2CCc3ccccc32)[nH]c1=O`: the AC50 under setting [1] is 10.3 µM [rising, partial curve].

Regarding `Cc1ccc(NCc2ccc(C)s2)cc1`, the AC50 under setting [1] was 17.8 µM [rising, single point].

With `CN(C)CCNC(=O)/C(=C/c1ccc(-c2cccc(Cl)c2)o1)NC(=O)c1ccccc1`, the AC50 under setting [1] was 29.1 µM [falling, single point].

Consider `CCOC(=O)c1c(C)[nH]c(C(=O)OC/C(O)=C(\C#N)c2nc3ccccc3[nH]2)c1C`, for which, under setting [1], the AC50 is 25.9 µM [rising, partial curve, poor fit].

For the compound `Cc1ccc(-n2ccnc(SCC(=O)NC3CCCCC3)c2=O)cc1F`, under setting [1], the AC50 was 20.6 µM [falling, single point].

`CC/C(=N\NC(=O)Nc1nonc1N)c1ccc(OC)c(OC)c1`: under setting [1], the AC50 is 14.1 µM [rising, single point].

Take `CCN1C(=O)N(CN2CCOCC2)C2C1N(CN1CCOCC1)C(=O)N2CC` (configuration not stated): the AC50 under setting [1] is 0.00411 µM [rising, full curve, poor fit].

Regarding `CCN(CC)CCCNC(=O)c1cc2c(-c3ccc(Cl)cc3)nn(C)c2s1`, under setting [1], the AC50 was 29.1 µM [falling, single point].

For `CCC(C)Nc1nc2c(c(=O)n(C)c(=O)n2C)n1C` (configuration not stated), under setting [1], the AC50 is 0.447 µM [falling, full curve].

As to `CCOc1ccc(C(=O)c2cccs2)cc1`, under setting [1], the AC50 was 3.16 µM [rising, full curve, poor fit].

Consider `Cc1cccc(NC(=O)c2ccc(N3CCCCC3)c([N+](=O)[O-])c2)n1`, for which the AC50 under setting [1] was 10 µM [falling, partial curve].

Consider `Cc1ccc(C(=O)NNC(=O)OC(C)(C)C)c(Cl)c1`, for which, under setting [1], the AC50 is 4.11 µM [falling, full curve, poor fit].

Take `Cc1cc(CNC(=O)Cn2nc(C)c([N+](=O)[O-])c2C)c2ccccc2n1`: the concentration at half-maximal activity (AC50) is 22.4 µM [rising, single point] under setting [1] and 25.1 µM [falling, single point] under setting [2].

With `Clc1ccc2c(c1)CNc1c(ncnc1N1CCOCC1)O2`, the AC50 under setting [1] is 6.31 µM [rising, single point].

In the case of `O=C1CC(N(CCc2ccccc2)C(=S)Nc2ccccc2)C(=O)N1c1ccc(Br)cc1` (configuration not stated), under setting [1], the AC50 is 20.6 µM [falling, partial curve, poor fit].

In the case of `CCOc1ccc(N2C(=O)N(Cc3c(F)cccc3Cl)c3ccccc3S2(=O)=O)cc1`, the AC50 under setting [1] is 15.8 µM [falling, single point].

With `Clc1ccc(C(c2ccccc2)N2CCNCC2)cc1` (configuration not stated), the AC50 under setting [1] was 20.6 µM [falling, single point].

Regarding `COCCn1c(SCc2cnc(-c3ccccc3)s2)nnc1-c1ccncc1`, under setting [1], the half-maximal activity concentration (AC50) was 0.501 µM [falling, partial curve, poor fit].

Consider `NS(=O)(=O)c1ccc(CCNC(=O)C(=O)NCC2OCCN2S(=O)(=O)c2cc(F)ccc2F)cc1` (configuration not stated), for which the AC50 under setting [1] was 2.24 µM [rising, full curve].

On to `C/C(=N\NC(=O)c1ccncc1)c1ccc(N2CCOCC2)cc1`, for which, under setting [1], the AC50 was 29.1 µM [falling, single point].

Regarding `C[C@H](NC(=O)c1ccccc1)C(=O)Nc1nc(-c2ccccn2)cs1`, the AC50 under setting [1] was 3.98 µM [falling, full curve, poor fit].

In the case of `COc1ccc(Cn2c(SCC(N)=O)nc3c(sc4ccccc43)c2=O)cc1`, under setting [1], the AC50 was 3.55 µM [rising, partial curve, poor fit].

Consider `COC(=O)c1cc(C)sc1NC(=O)C1C2C=CC(CC2)C1C(=O)O` (configuration not stated), for which the AC50 under setting [1] is 8.2 µM [rising, partial curve, poor fit].

With `N#CCn1cnc2c(oc3ccccc32)c1=O`, the AC50 under setting [1] is 11.2 µM [rising, partial curve, poor fit].

As for `COc1ccc(C(=O)Nc2ccccc2C(=O)N/N=C/c2ccco2)cc1`, the AC50 under setting [1] was 9.2 µM [falling, partial curve].

Take `CCN1CCN(S(=O)(=O)c2cccs2)CC1`: the AC50 under setting [1] is 0.58 µM [falling, partial curve, poor fit].

For the compound `CC(C)(O)c1cc2ccccc2c(=O)o1`, under setting [1], the AC50 is 4.11 µM [rising, full curve].

`COc1ccc(S(=O)(=O)N(C)C[C@H]2Oc3ccc(NS(=O)(=O)c4ccc(F)cc4)cc3C(=O)N([C@H](C)CO)C[C@@H]2C)cc1`: under setting [1], the AC50 is 5.8 µM [rising, partial curve].

For `O=C(COC(=O)c1ccc(O)cc1)Nc1cccc(S(=O)(=O)NC2=NCCC2)c1`, the AC50 under setting [1] was 2.91 µM [rising, partial curve, poor fit].

In the case of `Cc1c(NC(=O)COC(=O)c2cc(-c3ccc(-c4ccccc4)cc3)nc3ccccc23)c(=O)n(-c2ccccc2)n1C`, the AC50 is, setting by setting: under setting [1], 4.11 µM [rising, single point]; under setting [2], 25.9 µM [rising, partial curve, poor fit].

On to `COc1ccc(CCN(C)C(=O)COc2ccc(C(=O)c3ccccc3)cc2)cc1OC`, for which the AC50 under setting [1] is 29.1 µM [rising, single point].

On to `CCN(CC)CCn1c2c(c(SCC(=O)Nc3nc(C)cs3)nc1=O)CCC2`, for which the AC50 under setting [1] was 20.6 µM [falling, single point].

Take `O=C(O)CCCCCNC(=O)Nc1ccc2c(c1)OCCO2`: the AC50 under setting [1] is 2.59 µM [falling, full curve].

Take `O=C(CCC1N=C2c3ccccc3N=C(SCc3ccc(Cl)cc3)N2C1=O)NCc1ccco1` (configuration not stated): under setting [1], the AC50 was 6.31 µM [rising, single point].
